Experimental data published in publication doi:10.1101/2021.01.06.425598.
Positions count from the first letter of the chain named. No constants are given. Whether binding was seen depends on the method and setting. In cells and extracts the contact can be indirect. Some results given as binding are weak or reduced against the parent protein; the word gives no strength. Tags and fused reporters may be left off the sequences shown.

Amino acid sequences for entries named in this document (tags omitted). A change or cut given only in a name is not applied to a line headed by its entry.
UniProt Q14974, whole entry: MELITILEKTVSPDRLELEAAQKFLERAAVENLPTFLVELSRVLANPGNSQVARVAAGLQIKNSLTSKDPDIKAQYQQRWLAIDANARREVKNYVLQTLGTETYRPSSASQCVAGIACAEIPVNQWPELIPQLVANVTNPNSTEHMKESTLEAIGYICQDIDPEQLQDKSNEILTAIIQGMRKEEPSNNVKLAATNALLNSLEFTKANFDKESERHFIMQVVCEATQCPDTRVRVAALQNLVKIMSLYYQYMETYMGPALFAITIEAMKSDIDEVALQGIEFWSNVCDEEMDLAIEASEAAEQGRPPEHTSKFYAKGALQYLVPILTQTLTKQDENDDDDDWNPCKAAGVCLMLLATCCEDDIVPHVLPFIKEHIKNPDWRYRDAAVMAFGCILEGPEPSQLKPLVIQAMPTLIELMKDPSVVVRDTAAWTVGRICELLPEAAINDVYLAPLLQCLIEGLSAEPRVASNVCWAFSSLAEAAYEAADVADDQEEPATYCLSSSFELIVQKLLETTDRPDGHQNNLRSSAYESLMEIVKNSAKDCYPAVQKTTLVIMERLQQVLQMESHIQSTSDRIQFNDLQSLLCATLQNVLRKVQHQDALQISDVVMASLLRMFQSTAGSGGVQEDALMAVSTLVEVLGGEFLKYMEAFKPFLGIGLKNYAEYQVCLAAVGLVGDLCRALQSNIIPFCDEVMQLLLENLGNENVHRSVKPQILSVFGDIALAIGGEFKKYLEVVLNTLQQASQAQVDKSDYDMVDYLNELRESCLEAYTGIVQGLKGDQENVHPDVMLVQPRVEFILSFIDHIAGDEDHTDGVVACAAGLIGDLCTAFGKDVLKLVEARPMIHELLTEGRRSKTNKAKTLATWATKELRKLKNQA

Key:
Test in all cases: pull-down
[1] = target: T1, GST-tagged ANI-1 (RBD + C2) (C. elegans) (UniProt Q9XTT4)
T1 sequence: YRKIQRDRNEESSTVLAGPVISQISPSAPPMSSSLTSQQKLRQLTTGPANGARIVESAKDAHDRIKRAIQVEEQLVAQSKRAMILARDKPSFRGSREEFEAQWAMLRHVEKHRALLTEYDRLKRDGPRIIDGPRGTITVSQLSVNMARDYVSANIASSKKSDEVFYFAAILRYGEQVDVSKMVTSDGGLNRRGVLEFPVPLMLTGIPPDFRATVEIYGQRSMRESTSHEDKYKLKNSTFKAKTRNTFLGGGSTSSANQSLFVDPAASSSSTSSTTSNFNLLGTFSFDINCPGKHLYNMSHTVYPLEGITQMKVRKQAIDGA

[2] = target: T2, MBP-tagged ANI-1 (RBD + C2) K938E; K940E (C. elegans) (UniProt Q9XTT4)
T2 sequence: T1 sequence with K231E, K233E

[3] = target: T3, MBP-tagged ANI-1 (RBD + C2) K947A; K949A (C. elegans) (UniProt Q9XTT4)
T3 sequence: T1 sequence with K240A, K242A

Measured: binding

Myc-tagged human importin-β (from UniProt Q14974 1-876)
binds: all assays above
